The values that follow come from PMC4041440, “Structural and biophysical characterization of Staphylococcus aureus SaMazF shows conservation of functional dynamics” (Nucleic Acids Research, 2014).

Chains of the proteins cited; added tags and fusions are not shown. Lines headed by an entry give the natural chain unless they say otherwise; changes in a name come on top.
UniProt A7X4P6: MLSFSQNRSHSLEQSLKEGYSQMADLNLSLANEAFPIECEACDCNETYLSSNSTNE

Results are given in words; binding and its absence hold for the method and conditions named. For part of these data: Binding seen in cells or lysates may run through a third protein. Some binding calls cover weakened binding; strength is not graded here. Sequences can lack the tags named with a protein.

For assay [1], the target named is T1, Staphylococcus aureus MazF toxin (SaMazF), N-terminally His-tagged (Staphylococcus aureus) (UniProt Q7A4G9).
T1 sequence: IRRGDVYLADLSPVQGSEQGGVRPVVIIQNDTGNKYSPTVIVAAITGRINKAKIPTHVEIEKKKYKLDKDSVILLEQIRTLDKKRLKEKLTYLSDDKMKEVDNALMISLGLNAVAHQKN
Kind of assay: NMR titration; 3.5 mM SaMazE23-56 titrated into 0.5 mM 13C15N-labelled SaMazF, 20 mM phosphate pH 6.6, 308 K, 15N-HSQC; analysed at the 1:1 ratio; both purified.

The target of assay [2] is T1, Staphylococcus aureus MazF toxin (SaMazF), N-terminally His-tagged (Staphylococcus aureus). The assay can be described thus: CD spectroscopy; data not shown; SaMazE23-56 with SaMazF; both purified.
Assay [3] has the same target. The assay can be described thus: pull-down; Ni-NTA column traps His-SaMazF with co-expressed SaMazE from E. coli lysate; wash with 20 mM Tris-HCl pH 7.0, 300 mM NaCl, 20 mM imidazole; SaMazE then eluted with a 0-3 M GdHCl gradient.

In the case of “SaMazE-derived C-terminal peptide, residues 23-56 (SaMazE23-56) (from UniProt A7X4P6 23-56)”, the binding entry in assay [1] and in assay [2] was “binds” each time.

Consider “Staphylococcus aureus MazE antitoxin (SaMazE) (from UniProt A7X4P6 1-56)”, for which the binding entry in assay [3] is on record as “binds”.
